Source: the supplement of paper PMC10849652
This is one part of the list.

The chains behind the UniProt entries cited, without tags or fusion partners. Where a name states a change or a piece, a line headed by the entry shows the natural chain unless it says otherwise.
UniProt Q8N9A8: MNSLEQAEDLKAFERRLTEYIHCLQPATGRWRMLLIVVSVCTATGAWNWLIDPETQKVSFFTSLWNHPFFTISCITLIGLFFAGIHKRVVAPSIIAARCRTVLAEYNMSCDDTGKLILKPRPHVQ
UniProt Q9Y240: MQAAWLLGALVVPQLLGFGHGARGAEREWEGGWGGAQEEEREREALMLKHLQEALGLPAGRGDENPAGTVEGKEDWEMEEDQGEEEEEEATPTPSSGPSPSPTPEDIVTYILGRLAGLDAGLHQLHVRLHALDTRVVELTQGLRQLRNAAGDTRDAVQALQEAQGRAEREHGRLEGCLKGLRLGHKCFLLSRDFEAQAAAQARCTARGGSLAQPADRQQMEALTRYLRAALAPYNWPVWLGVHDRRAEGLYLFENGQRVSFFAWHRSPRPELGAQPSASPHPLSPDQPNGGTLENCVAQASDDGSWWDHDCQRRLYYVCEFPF
UniProt Q8N0X4: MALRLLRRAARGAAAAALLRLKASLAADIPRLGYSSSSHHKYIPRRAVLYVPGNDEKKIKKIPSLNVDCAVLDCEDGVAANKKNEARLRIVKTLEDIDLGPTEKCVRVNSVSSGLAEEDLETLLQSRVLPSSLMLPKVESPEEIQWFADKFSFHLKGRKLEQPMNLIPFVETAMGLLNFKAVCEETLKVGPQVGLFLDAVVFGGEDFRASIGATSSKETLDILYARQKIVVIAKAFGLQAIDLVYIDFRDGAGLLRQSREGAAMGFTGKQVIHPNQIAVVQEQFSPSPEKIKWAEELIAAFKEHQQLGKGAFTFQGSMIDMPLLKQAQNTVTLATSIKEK
UniProt Q9BQT9: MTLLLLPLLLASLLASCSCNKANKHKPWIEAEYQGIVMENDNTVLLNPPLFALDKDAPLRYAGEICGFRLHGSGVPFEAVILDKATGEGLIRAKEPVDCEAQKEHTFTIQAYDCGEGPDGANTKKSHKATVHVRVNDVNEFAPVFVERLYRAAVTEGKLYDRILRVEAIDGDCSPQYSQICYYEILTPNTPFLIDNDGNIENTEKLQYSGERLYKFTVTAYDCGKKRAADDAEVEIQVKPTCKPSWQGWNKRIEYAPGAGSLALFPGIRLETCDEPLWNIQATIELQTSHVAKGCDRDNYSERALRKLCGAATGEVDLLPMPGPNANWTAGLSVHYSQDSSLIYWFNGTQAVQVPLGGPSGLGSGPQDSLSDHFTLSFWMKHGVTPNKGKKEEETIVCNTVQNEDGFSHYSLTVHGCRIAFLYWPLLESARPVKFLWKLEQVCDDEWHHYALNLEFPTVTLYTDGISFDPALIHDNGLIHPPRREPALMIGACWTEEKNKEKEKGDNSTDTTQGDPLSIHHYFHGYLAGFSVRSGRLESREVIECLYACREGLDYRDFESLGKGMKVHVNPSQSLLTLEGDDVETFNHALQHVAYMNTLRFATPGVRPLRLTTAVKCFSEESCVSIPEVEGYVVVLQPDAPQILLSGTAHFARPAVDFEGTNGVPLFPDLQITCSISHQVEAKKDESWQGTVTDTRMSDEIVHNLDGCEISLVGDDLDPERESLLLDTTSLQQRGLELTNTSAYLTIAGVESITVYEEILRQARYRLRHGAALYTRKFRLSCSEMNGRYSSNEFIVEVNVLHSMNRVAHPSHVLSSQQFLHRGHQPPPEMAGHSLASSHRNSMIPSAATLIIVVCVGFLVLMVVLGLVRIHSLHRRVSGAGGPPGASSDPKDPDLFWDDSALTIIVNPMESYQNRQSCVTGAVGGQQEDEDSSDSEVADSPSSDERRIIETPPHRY
UniProt Q92989: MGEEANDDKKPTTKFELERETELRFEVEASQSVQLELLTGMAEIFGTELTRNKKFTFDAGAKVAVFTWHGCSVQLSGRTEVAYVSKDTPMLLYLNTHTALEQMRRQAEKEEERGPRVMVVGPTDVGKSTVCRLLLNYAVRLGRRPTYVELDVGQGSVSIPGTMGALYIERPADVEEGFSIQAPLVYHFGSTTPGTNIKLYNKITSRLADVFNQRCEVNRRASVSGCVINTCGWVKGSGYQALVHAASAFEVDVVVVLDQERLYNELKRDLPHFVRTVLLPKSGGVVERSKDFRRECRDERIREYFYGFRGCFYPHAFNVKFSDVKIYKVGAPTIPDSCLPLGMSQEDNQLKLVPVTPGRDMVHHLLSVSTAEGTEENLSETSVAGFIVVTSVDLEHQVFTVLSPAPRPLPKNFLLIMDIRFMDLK
UniProt Q86WW8: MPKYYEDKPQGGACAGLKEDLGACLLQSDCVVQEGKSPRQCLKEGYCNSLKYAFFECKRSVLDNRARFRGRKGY
UniProt P56747: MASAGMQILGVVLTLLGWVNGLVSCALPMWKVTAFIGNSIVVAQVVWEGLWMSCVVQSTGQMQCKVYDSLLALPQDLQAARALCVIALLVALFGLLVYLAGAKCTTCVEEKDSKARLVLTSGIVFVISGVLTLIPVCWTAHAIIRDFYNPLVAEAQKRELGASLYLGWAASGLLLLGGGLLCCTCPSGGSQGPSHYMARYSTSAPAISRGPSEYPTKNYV
UniProt Q99715: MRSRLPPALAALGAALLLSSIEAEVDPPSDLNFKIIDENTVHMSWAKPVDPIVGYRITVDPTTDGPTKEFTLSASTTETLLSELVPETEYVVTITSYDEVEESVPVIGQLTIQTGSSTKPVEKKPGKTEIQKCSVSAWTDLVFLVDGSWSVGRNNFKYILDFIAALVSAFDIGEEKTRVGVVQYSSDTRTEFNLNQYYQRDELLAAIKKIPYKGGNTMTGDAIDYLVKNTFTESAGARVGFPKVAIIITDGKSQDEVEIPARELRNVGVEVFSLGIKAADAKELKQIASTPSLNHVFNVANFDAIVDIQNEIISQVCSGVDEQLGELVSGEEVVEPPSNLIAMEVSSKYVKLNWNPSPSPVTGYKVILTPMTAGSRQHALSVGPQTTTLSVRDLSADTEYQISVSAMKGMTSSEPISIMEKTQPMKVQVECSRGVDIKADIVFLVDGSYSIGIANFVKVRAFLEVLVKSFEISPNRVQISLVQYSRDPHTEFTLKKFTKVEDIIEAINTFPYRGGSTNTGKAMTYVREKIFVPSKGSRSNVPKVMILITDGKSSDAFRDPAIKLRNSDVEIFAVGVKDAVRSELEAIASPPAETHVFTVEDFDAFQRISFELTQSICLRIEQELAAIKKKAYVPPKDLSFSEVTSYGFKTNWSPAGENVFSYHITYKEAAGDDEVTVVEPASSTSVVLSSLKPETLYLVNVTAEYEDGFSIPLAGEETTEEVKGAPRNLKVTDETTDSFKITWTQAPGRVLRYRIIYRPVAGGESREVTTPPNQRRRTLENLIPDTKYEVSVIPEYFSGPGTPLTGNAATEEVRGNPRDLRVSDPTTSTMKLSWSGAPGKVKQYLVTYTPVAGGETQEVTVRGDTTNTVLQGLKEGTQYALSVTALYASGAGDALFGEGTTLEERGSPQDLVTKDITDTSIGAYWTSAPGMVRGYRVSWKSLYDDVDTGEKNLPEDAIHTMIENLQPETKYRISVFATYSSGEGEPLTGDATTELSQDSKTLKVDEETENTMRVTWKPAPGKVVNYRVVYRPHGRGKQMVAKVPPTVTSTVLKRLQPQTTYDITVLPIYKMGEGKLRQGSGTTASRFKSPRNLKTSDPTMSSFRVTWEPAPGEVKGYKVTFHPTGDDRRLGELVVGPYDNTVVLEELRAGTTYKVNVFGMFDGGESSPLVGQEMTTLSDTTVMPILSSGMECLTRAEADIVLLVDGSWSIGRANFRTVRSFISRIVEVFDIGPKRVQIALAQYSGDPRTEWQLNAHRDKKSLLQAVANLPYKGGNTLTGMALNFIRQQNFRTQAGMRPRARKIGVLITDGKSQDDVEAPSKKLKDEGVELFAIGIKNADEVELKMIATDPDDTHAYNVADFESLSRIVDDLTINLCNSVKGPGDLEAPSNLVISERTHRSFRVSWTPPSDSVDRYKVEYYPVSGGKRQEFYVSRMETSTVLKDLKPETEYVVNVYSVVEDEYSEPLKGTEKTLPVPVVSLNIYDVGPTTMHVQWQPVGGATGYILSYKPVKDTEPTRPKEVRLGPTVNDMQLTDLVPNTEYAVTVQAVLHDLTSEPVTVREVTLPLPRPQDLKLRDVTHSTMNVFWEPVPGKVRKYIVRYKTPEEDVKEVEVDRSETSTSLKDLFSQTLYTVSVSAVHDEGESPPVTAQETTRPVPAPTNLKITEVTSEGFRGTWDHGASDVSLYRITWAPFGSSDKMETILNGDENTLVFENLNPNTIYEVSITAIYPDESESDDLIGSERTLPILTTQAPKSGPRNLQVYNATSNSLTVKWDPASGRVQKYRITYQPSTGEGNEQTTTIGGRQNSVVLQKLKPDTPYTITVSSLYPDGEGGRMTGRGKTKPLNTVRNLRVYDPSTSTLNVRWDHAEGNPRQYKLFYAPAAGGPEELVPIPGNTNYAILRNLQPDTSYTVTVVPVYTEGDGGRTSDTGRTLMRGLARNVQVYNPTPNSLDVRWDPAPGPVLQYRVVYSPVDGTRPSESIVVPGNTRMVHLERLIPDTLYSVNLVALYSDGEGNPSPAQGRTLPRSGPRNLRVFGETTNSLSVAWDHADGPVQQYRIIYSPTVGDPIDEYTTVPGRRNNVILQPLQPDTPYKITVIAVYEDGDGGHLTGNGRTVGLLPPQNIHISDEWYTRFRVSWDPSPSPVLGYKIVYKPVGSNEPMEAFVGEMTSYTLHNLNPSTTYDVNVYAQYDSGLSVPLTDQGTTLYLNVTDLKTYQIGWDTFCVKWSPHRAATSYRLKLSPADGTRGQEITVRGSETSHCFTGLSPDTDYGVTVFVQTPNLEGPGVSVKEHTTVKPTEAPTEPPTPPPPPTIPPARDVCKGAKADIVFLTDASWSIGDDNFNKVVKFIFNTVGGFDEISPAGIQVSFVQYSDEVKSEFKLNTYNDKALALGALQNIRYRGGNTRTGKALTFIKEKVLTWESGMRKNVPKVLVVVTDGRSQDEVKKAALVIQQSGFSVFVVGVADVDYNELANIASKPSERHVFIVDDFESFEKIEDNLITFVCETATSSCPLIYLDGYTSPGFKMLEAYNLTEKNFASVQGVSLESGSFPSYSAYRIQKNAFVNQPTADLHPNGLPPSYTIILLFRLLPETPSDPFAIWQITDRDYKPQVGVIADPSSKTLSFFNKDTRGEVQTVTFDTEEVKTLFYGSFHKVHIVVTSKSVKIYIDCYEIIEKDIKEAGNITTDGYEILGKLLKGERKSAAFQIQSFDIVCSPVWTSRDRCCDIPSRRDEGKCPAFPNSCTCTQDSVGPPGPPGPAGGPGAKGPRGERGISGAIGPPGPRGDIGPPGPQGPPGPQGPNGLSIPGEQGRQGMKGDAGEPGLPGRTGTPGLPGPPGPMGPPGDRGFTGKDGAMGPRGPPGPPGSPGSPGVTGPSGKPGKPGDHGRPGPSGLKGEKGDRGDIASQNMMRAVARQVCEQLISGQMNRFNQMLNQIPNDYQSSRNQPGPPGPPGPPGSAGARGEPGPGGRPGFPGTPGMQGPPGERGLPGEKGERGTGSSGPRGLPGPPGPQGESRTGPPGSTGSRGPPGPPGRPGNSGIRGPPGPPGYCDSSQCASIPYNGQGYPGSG
UniProt Q9UP83: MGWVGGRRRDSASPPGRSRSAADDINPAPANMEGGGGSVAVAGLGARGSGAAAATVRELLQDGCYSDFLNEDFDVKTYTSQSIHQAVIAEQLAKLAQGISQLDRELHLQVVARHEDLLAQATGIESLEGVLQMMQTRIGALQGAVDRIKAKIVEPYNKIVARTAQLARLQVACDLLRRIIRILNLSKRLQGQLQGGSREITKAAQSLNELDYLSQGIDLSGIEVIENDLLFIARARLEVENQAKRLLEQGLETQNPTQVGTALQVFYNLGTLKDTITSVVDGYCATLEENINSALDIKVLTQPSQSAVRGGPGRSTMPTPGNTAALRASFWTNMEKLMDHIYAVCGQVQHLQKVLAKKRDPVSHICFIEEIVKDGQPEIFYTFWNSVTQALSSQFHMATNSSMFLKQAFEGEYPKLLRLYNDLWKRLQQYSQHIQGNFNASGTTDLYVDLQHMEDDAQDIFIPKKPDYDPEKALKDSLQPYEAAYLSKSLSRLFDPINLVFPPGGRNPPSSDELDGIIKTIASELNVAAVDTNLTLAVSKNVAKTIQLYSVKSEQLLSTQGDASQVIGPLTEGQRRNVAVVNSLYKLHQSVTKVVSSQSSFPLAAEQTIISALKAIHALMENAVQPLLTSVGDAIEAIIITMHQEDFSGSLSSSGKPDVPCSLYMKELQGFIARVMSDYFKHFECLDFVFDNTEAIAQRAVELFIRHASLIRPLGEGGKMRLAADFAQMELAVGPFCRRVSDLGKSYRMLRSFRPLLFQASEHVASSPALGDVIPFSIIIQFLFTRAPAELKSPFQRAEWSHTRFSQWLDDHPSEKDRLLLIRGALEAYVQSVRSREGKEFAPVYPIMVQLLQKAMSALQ
UniProt P56277: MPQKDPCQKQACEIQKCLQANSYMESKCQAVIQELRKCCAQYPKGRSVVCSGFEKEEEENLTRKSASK

Experiments:
Assay in all cases: log2 fold change, soluble protein after heating vs DMSO (PISA); higher = thermal stabilisation; K562 cells, 10 uM, 30 min; active = over 0.2 and 3.5 SD of the protein, either way, in both replicates (recomputed)
[1] = compound: Cn1cc(-c2ccc3c(c2)CCN3C(=O)Cc2cccc(C(F)(F)F)c2)c2c(N)ncnc21
Procedure, shortened: (§1)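 Quantification of soluble protein used TMTpro 16plex LC-MS/MS, with channel sums equalised. Samples were the supernatant after 21,000xg for 90 min of pooled aliquots from K562 cells (2×10^6 cells/mL) treated with 10 μM compound for 30 min, heated for 3 min over 48°C-58°C, and extracted in PBS with 0.5% NP-40 at 4°C. Values, from duplicates, describe thermal stability against control samples on a log2 fold-change scale.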

[2] = compound: NC(=O)c1cnc(N[C@@H]2CCCC[C@@H]2N)nc1Nc1cccc(-n2nccn2)c1
Procedure, shortened: as §1

[3] = compound: NCC(=O)Nc1ccc(-n2nc(C(F)(F)F)cc2-c2ccc3c(ccc4ccccc43)c2)cc1
Procedure, shortened: as §1

[4] = compound: Cc1cccc(CC(=O)N2CCc3c2ccc(-c2cn(C)c4ncnc(N)c24)c3F)n1
Procedure, shortened: as §1

[5] = compound: Cc1nc(Nc2ncc(C(=O)Nc3c(C)cccc3Cl)s2)cc(N2CCN(CCO)CC2)n1 [dasatinib]
Procedure, shortened: as §1

[6] = compound: Cn1cc(-c2ccc3nnc(C(F)(F)c4ccc5ncccc5c4)n3n2)cn1
Procedure, shortened: as §1

[7] = compound: Cn1cncc1[C@@](N)(c1ccc(Cl)cc1)c1ccc2c(c1)c(-c1cccc(Cl)c1)cc(=O)n2C [tipifarnib]
Procedure, shortened: as §1

[8] = compound: NC(=O)Nc1cc(-c2cccc(F)c2)sc1C(=O)N[C@H]1CCCNC1
Procedure, shortened: as §1

[9] = compound: Nc1ccccc1NC(=O)c1ccc(CNC(=O)OCc2cccnc2)cc1 [entinostat]
Procedure, shortened: as §1

[10] = compound: O=C(CCCCCCC(=O)Nc1ccccc1)NO [vorinostat]
Procedure, shortened: as §1

[11] = compound: Cc1ccc(NC(=O)c2ccc(CN3CC[C@H](N(C)C)C3)c(C(F)(F)F)c2)cc1Nc1nccc(-c2cncnc2)n1 [bafetinib]
Procedure, shortened: as §1

[12] = compound: FC(F)(F)c1ccc(/C=C/c2nc(COc3ccc(CCCCn4ccnn4)cc3)co2)cc1 [mubritinib]
Procedure, shortened: as §1

[13] = compound: NC1(c2ccc(-c3nc4ccn5c(=O)[nH]nc5c4cc3-c3ccccc3)cc2)CCC1
Procedure, shortened: as §1

[14] = compound: O=C(O)c1ccc2c(c1)nc(Nc1cccc(Cl)c1)c1ccncc12 [silmitasertib]
Procedure, shortened: as §1

[15] = compound: O=C1NC(=O)C(c2cnc3ccccn23)=C1c1cn2c3c(cc(F)cc13)CN(C(=O)N1CCCCC1)CC2
Procedure, shortened: as §1

[16] = compound: Cc1cn(-c2cc(NC(=O)c3ccc(C)c(Nc4nccc(-c5cccnc5)n4)c3)cc(C(F)(F)F)c2)cn1 [nilotinib]
Procedure, shortened: as §1

[17] = compound: Cc1nc(Nc2n[nH]c3c2CN(C(=O)N[C@H](CN(C)C)c2ccccc2)C3(C)C)c2sccc2n1
Procedure, shortened: as §1

[18] = compound: Cc1ncc(-c2ccnc(Nc3ccc(S(C)(=O)=O)cc3)n2)n1C(C)C
Procedure, shortened: as §1

[19] = compound: O=C(CCCCCCNC(=O)c1cnc(N(c2ccccc2)c2ccccc2Cl)nc1)NO [citarinostat]
Procedure, shortened: as §1

[20] = compound: c1cc(OCCN2CCCCC2)cc(-c2n[nH]c3ccc(-c4nnc[nH]4)cc23)c1
Procedure, shortened: as §1

Measured: log2 fold change

CNEP1R1 isoform 2 (UniProt Q8N9A8)
inactive: [1] 0.452 | [2] 0.07 | [3] -0.101

COG1 (UniProt Q8WTW3)
inactive: [4] 0.058 | [5] 0.027 | [1] -0.246 | [6] -0.127 | [7] 0.018 | [8] 0.019 | [9] -0.225 | [10] 0.059

CLDN12 (UniProt P56749)
inactive: [11] 0.248 | [12] -0.074 | [8] -0.242 | [13] 0.067 | [9] -0.05 | [14] 0.044 | [15] -0.255

CNTRL (UniProt Q7Z7A1)
inactive: [16] -0.349 | [17] -0.023 | [5] -0.029 | [18] 0.059 | [1] -0.061 | [6] 0.014 | [8] -0.272 | [2] -0.084 | [3] 0.033 | [9] -0.121 | [19] 0.11 | [20] -0.002

COG8 (UniProt Q96MW5)
inactive: [1] -0.259 | [12] -0.109 | [13] 0.22 | [19] 0.239 | [14] -0.16 | [15] 0.335 | [20] -0.153

Random excerpt: two entries already listed, in no set order.
CLDN12 (UniProt P56749)
inactive: [11] 0.248 | [12] -0.074 | [8] -0.242 | [13] 0.067 | [9] -0.05 | [14] 0.044 | [15] -0.255

COG1 (UniProt Q8WTW3)
inactive: [4] 0.058 | [5] 0.027 | [1] -0.246 | [6] -0.127 | [7] 0.018 | [8] 0.019 | [9] -0.225 | [10] 0.059

(list continues)

COG6 (UniProt Q9Y2V7)
inactive: [5] -0.171 | [1] -0.637 | [6] 0.034 | [7] 0.04 | [12] -0.062 | [2] -0.014 | [13] 0.099 | [3] -0.09 | [14] -0.114

CLEC11A (UniProt Q9Y240)
inactive: [4] 0.009 | [5] -0.162 | [7] 0.014 | [10] 0.067

CHUK (UniProt O15111)
inactive: [4] 0.17 | [5] 0.132 | [1] -0.159 | [6] -0.122 | [12] 0.213 | [2] -0.276 | [13] 0.07 | [3] 0.045 | [10] 0.093 | [14] 0.146 | [15] 0.355

CLCN5 isoform 2 (UniProt P51795)
inactive: [4] 0.048 | [16] -0.176 | [17] 0.014 | [5] -0.177 | [18] -0.063 | [1] 0.041 | [6] -0.061 | [3] 0.004 | [10] 0.062 | [19] 0.045 | [20] -0.114

CHPT1 (UniProt Q8WUD6)
inactive: [4] 0.197 | [16] -0.596 | [17] -0.029 | [5] -0.074 | [18] -0.017 | [1] 0.011 | [6] -0.027 | [7] -0.192 | [12] 0.387 | [8] 0 | [2] -0.039 | [13] -0.059 | [9] 0.062 | [10] 0.066 | [19] 0.002 | [14] -0.042 | [15] -0.049 | [20] 0.019

CLYBL (UniProt Q8N0X4)
inactive: [4] -0.153 | [7] -0.421 | [10] -0.041

COG7 (UniProt P83436)
inactive: [5] 0.115 | [1] -0.539 | [6] -0.084 | [7] 0.133 | [12] -0.31 | [2] -0.085 | [13] 0.094 | [3] 0.106 | [14] 0.058 | [15] 0.031

CLSTN3 isoform 2 (UniProt Q9BQT9)
inactive: [4] -0.025 | [7] 0.147 | [2] -0.077 | [3] 0.341 | [10] -0.112 | [15] 0.117

CLP1 (UniProt Q92989)
inactive: [11] -0.051 | [1] 0.044 | [12] -0.083 | [8] -0.066 | [13] -0.123 | [9] 0.106 | [19] 0.122 | [14] -0.144 | [20] 0.028

COA5 (UniProt Q86WW8)
inactive: [5] -0.099 | [1] -0.03 | [2] -0.018 | [3] 0.009 | [15] 0.149

CKAP2 (UniProt Q8WWK9)
inactive: [16] -0.054 | [17] -0.044 | [5] 0.058 | [18] 0.002 | [1] -0.294 | [6] -0.262 | [7] 0.187 | [12] -0.333 | [8] -0.073 | [13] 0.141 | [9] 0.116 | [14] 0.031 | [15] 0.359

CIP2A (UniProt Q8TCG1)
inactive: [4] -0.399 | [5] 0.355 | [12] -0.278 | [8] -1.03 | [13] 0.093 | [9] -0.107 | [10] -0.253 | [14] 0.398 | [15] 0.21

CNN1 (UniProt P51911)
inactive: [4] 0.22 | [16] 0.008 | [17] 0 | [18] 0.031 | [1] 0.04 | [7] 0.049 | [12] 0.009 | [8] -0.002 | [2] -0.07 | [13] -0.305 | [3] -0.023 | [9] 0.018 | [10] -0.125 | [19] 0.168 | [14] 0.108 | [15] -0.008 | [20] -0.052

CLDN6 (UniProt P56747)
inactive: [4] -0.018 | [5] -0.042 | [10] 0.297

COL12A1 (UniProt Q99715)
inactive: [6] -0.035 | [7] 0.044 | [8] -0.215 | [9] 0.036 | [15] -0.132

COG5 isoform 2 (UniProt Q9UP83)
inactive: [6] -0.078 | [3] 0.448

CKAP4 (UniProt Q07065)
inactive: [16] -0.006 | [17] 0.063 | [5] -0.028 | [18] -0.068 | [1] 0.165 | [6] 0.053 | [7] 0.019 | [12] 0.002 | [8] 0.014 | [2] -0.005 | [13] -0.012 | [3] 0.027 | [9] -0.04 | [19] -0.095 | [14] -0.053 | [20] 0.135

COG3 (UniProt Q96JB2)
inactive: [11] 0.21 | [5] 0.07 | [1] -0.192 | [6] -0.042 | [12] -0.065 | [13] 0.155 | [3] -0.042 | [19] -0.105 | [14] 0.234 | [15] 0.109 | [20] -0.17

CMC4 (UniProt P56277)
inactive: [4] -0.068 | [5] -0.116 | [1] 0.206 | [6] 0.206 | [7] 0.097 | [2] -0.113 | [10] -0.128

COL1A1 (UniProt P02452)
inactive: [11] 0.175 | [5] 0.079 | [1] 0.204 | [6] -0.095 | [7] 0.071 | [8] -0.109 | [2] -0.1 | [3] -0.125 | [9] -0.163 | [19] -0.103 | [15] 0.099 | [20] 0.797
